Source: patent US20250295798A1 (BeiGene Switzerland GmbH, priority 2022, published 2025)

Assay: peptide synthesis
Conditions: for final purity (method not given) / conjugation yield: conjugation step

| Substance | step yield (coupling step) | step yield (late stage modification step) | further results |
| --- | --- | --- | --- |
| benzyl (5S,14S)-14-benzyl-1-(9H-fluoren-9-yl)-23-fluoro-23-methyl-3,6,9,12,15,18-hexaoxo-5-(3-oxo-3-((((2S,3R,4R,5S,6R)-3,4,5-trihydroxy-6-(hydroxymethyl)tetrahydro-2H-pyran-2-yl)methyl)amino)propyl)-2,21-dioxa-4,7,10,13,16,19-hexaazatetracosan-24-oate (3-24d) | 52.9% yield | – | – |
| benzyl(S)-11-benzyl-1-(9H-fluoren-9-yl)-3,6,9,12,15-pentaoxo-2,18-dioxa-4,7,10,13,16-pentaazahenicosan-21-oate (3-22b) | – | 83.9% yield | – |
| (9H-fluoren-9-yl)methyl ((S)-12-benzyl-2-((1S,9S)-9-ethyl-5-fluoro-9-hydroxy-4-methyl-10,13-dioxo-2,3,9,10,13,15-hexahydro-1H,12H-benzo[de]pyrano[3′,4′:6,7]indolizino[1,2-b]quinolin-1-yl)-8,11,14,17-tetraoxo-5-oxa-2,7,10,13,16-pentaazaoctadecan-18-yl)carbamate (3-6a) | – | – | final purity (method not given): 53% purity |
| (9H-fluoren-9-yl)methyl((10S)-10-benzyl-1-((9S)-9-ethyl-5-fluoro-9-hydroxy-4-methyl-10,13-dioxo-2,3,9,10,13,15-hexahydro-1H,12H-benzo[de]pyrano[3′,4′:6,7]indolizino[1,2-b]quinolin-1-yl)-6,9,12,15-tetraoxo-3-oxa-5,8,11,14-tetraazahexadecan-16-yl)carbamate (3-26a) | – | – | conjugation yield: 66% yield |
| (5S,14S)-14-benzyl-1-(9H-fluoren-9-yl)-23-fluoro-23-methyl-3,6,9,12,15,18-hexaoxo-5-(3-oxo-3-((((2S,3R,4R,5S,6R)-3,4,5-trihydroxy-6-(hydroxymethyl)tetrahydro-2H-pyran-2-yl)methyl)amino)propyl)-2,21-dioxa-4,7,10,13,16,19-hexaazatetracosan-24-oic acid (3-24e) | – | 100% yield | – |
| (9H-fluoren-9-yl)methyl ((6S,15S)-15-benzyl-3,7,10,13,16,19-hexaoxo-1-((2S,3R,4R,5S,6R)-3,4,5-trihydroxy-6-(hydroxymethyl)tetrahydro-2H-pyran-2-yl)-22-oxa-2,8,11,14,17,20-hexaazahexacos-25-yn-6-yl)carbamate (3-13c) | 57.1% yield | – | – |
| benzyl(5S,14S)-14-benzyl-1-(9H-fluoren-9-yl)-3,6,9,12,15,18-hexaoxo-5-(3-oxo-3-((((2S,3R,4R,5S,6R)-3,4,5-trihydroxy-6-(hydroxymethyl)tetrahydro-2H-pyran-2-yl)methyl)amino)propyl)-2,21-dioxa-4,7,10,13,16,19-hexaazatetracosan-24-oate (3-22d) | 80.9% yield | – | – |
| (9H-fluoren-9-yl)methyl (S)-(7-benzyl-2,5,8,11-tetraoxo-14-oxa-3,6,9,12-tetraazaoctadec-17-yn-1-yl)carbamate (3-13a) | – | yield 70.3% | – |
| benzyl (5S,14S)-14-benzyl-1-(9H-fluoren-9-yl)-3,6,9,12,15,18-hexaoxo-5-(3-oxo-3-((((2S,3R,4R,5S,6R)-3,4,5-trihydroxy-6-(hydroxymethyl)tetrahydro-2H-pyran-2-yl)methyl)amino)propyl)-2,21-dioxa-4,7,10,13,16,19-hexaazatricosan-23-oate | 51.0% yield | – | – |
| (9H-fluoren-9-yl)methyl ((S)-12-benzyl-1-(((1S,9S)-9-ethyl-5-fluoro-9-hydroxy-4-methyl-10,13-dioxo-2,3,9,10,13,15-hexahydro-1H,12H-benzo[de]pyrano[3′,4′:6,7]indolizino[1,2-b]quinolin-1-yl)amino)-1,8,11,14,17-pentaoxo-2,5-dioxa-7,10,13,16-tetraazaoctadecan-18-yl)carbamate (3-5a) | – | – | conjugation yield: 70% yield; final purity (method not given): 87% purity |
| benzyl (11S)-1-benzyl-1-(9H-fluoren-9-yl)-20-fluoro-20-methyl-3,6,9,12,15-pentaoxo-2,18-dioxa-4,7,10,13,16-pentaazahenicosan-21-oate (3-24b) | – | 67.7% yield | – |
